Source: publication PMC11557686
These are yes or no findings as the source states them, for the method shown. In cells and extracts the contact can be indirect. Some results given as binding are weak or reduced against the parent protein; the word gives no strength. For some assays here: Tags and fused reporters may be left off the sequences shown.

Chains of the proteins cited; added tags and fusions are not shown.
UniProt O15260: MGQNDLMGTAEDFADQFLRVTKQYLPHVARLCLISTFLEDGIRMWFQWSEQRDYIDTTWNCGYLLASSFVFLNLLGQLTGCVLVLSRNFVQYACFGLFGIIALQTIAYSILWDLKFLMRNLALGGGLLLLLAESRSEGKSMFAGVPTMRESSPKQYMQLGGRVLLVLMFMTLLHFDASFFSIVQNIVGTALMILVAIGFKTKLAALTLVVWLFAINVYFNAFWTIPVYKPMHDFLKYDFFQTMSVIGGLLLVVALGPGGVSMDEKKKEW

T1: SP-HA-TMED10 WT (UniProt P49755)
T1 sequence: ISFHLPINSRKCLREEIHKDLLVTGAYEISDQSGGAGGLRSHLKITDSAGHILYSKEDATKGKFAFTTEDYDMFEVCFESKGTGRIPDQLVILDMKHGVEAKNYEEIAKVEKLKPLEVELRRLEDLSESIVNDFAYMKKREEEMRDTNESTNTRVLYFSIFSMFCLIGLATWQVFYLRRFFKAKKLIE


Columns and labels:
LgBiT-SURF4 = LgBiT-SURF4 (UniProt O15260); experiment: split reporter; LgBiT-SURF4 and SmBiT-SEC24A or SmBiT-SEC24C co-expressed in HEK-293TREx double KO cells; NanoGlo Live Cell Substrate, room temperature 15 min; luminescence normalised to WT; also after 4-PBA (4 h) or siRNA against TMED10, TMED2 or LMAN1
SP-HA-TMED10 WT = target: T1, SP-HA-TMED10 WT; experiment: cross-linking + co-IP; HEK TREx-293 TMED10 KO cells co-transfected; 0.2 mM DSP in PBS with 0.2 mM CaCl2, RT 30 min; lysis in 1.0% Triton X-100, 150 mM NaCl, 2 mM CaCl2, pH 7.5; anti-HA agarose or anti-V5 on Protein G Sepharose; immunoblot

| Binder | binding (LgBiT-SURF4) | binding (SP-HA-TMED10 WT) |
| --- | --- | --- |
| SmBiT-SEC24A (protein, UniProt O95486 1-1093) MSQPGIPASGGAPASLQAQNGAALASGSPYTNGPVQNALLSSQESVSQGYNFQLPGSYPHPIPAKTLNPVSGQSNYGGSQGSGQTLNRPPVASNPVTPSLHSGPAPRMPLPASQNPATTPMPSSSFLPEANLPPPLNWQYNYPSTASQTNHCPRASSQPTVSGNTSLTTNHQYVSSGYPSLQNSFIKSGPSVPPLVNPPLPTTFQPGAPHGPPPAGGPPPVRALTPLTSSYRDVPQPLFNSAVNQEGITSNTNNGSMVVHSSYDEIEGGGLLATPQLTNKNPKMSRSVGYSYPSLPPGYQNTTPPGATGVPPSSLNYPSGPQAFTQTPLGANHLTTSMSGLSLQPEGLRVVNLLQERNMLPSTPLKPPVPNLHEDIQKLNCNPELFRCTLTSIPQTQALLNKAKLPLGLLLHPFKDLVQLPVVTSSTIVRCRSCRTYINPFVSFLDQRRWKCNLCYRVNDVPEEFLYNPLTRVYGEPHRRPEVQNATIEFMAPSEYMLRPPQPPVYLFVFDVSHNAVETGYLNSVCQSLLDNLDLLPGNTRTKIGFITFDSTIHFYGLQESLSQPQMLIVSDIEDVFIPMPENLLVNLNESKELVQDLLKTLPQMFTKTLETQSALGPALQAAFKLMSPTGGRMSVFQTQLPTLGVGALKPREEPNHRSSAKDIHMTPSTDFYKKLALDCSGQQVAVDLFLLSGQYSDLASLGCISRYSAGSVYYYPSYHHQHNPVQVQKLQKELQRYLTRKIGFEAVMRIRCTKGLSIHTFHGNFFVRSTDLLSLPNVNPDAGYAVQMSVEESLTDTQLVSFQSALLYTSSKGERRIRVHTLCLPVVSTLNDVFLGADVQAISGLLANMAVDRSMTASLSDARDALVNAVIDSLSAYRSSVLSNQQPGLMVPFSLRLFPLFVLALLKQKSFQTGTNARLDERIFAMCQVKNQPLVYLMLTTHPSLYRVDNLSDEGALNISDRTIPQPPILQLSVEKLSRDGAFLMDAGSVLMLWVGKNCTQNFLSQVLGVQNYASIPQPMTDLPELDTPESARIIAFISWLREQRPFFPILYVIRDESPMKANFLQNMIEDRTESALSYYEFLLHIQQQVNK | binds |  |
| endogenous Cab45 (protein, UniProt Q9BRK5 37-362) RPANHSSTRERVANREENEILPPDHLNGVKLEMDGHLNRGFHQEVFLGKDLGGFDEDAEPRRSRRKLMVIFSKVDVNTDRKISAKEMQRWIMEKTAEHFQEAMEESKTHFRAVDPDGDGHVSWDEYKVKFLASKGHSEKEVADAIRLNEELKVDEETQEVLENLKDRWYQADSPPADLLLTEEEFLSFLHPEHSRGMLRFMVKEIVRDLDQDGDKQLSVPEFISLPVGTVENQQGQDIDDNWVKDRKKEFEELIDSNHDGIVTAEELESYMDPMNEYNALNEAKQMIAVADENQNHHLEPEEVLKYSEFFTGSKLVDYARSVHEEF |  | no binding |
